{"sequences": {"note": "Protein sequences, listed by entry. Tags and fused reporters are not part of them.", "UniProt Q13283": "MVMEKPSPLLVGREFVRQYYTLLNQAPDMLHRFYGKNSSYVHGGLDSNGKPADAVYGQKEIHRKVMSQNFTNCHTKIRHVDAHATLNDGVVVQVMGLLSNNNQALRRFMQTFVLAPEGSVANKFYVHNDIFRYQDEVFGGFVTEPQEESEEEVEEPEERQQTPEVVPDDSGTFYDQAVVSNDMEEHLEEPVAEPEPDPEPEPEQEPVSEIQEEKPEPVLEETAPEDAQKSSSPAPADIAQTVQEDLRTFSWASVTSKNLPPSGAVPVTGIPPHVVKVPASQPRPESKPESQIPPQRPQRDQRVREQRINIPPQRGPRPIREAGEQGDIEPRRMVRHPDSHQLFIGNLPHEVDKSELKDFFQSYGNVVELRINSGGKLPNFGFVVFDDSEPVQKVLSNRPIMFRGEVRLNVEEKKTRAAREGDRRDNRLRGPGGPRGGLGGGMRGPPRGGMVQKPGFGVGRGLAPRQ"}, "source": "paper PMC4967826", "about": "“Combined structural, biochemical and cellular evidence demonstrates that both FGDF motifs in alphavirus nsP3 are required for efficient replication” (Open Biology, 2016)", "target": "EGFP fused with full-length CHIKV nsP3 (EGFP-nsP3CHIKV), WT (chikungunya virus (CHIKV LR2006-OPY1)) (UniProt Q5XXP4)", "assay": "co-IP", "note": "Results are given in words; binding and its absence hold for the method and conditions named. In cells and extracts the contact can be indirect. A result given as binding can be weak or reduced; the word gives no strength.", "data": [{"substance": "G3BP-1 (endogenous, HEK293 cells) (from UniProt Q13283 1-466)", "values": [{"measurement": "binding", "value": "binds"}]}]}
